Taken from: PubChem BioAssay AID652259 (Drosophila RNAi Screening Center, 2013)
Aim: 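Knock-downs that push a Wingless-driven reporter up or down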 (primary screen). Cell system: Drosophila clone 8 imaginal disc epithelial cells. Reagent: long dsRNA against Drosophila genes. Conditions: pathway stimulated by co-transfected Wingless expression plasmid. Read-out: 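Firefly luciferase from a tcf-site Wingless reporter, measured alongside co-transfected Renilla luciferase that tracks transfection; pathway stimulated by a Wingless plasmid; the firefly-to-Renilla ratio is not deposited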. Direction: firefly reporter light: higher = more Wg reporter light, before normalisation; Renilla control light: higher = more transfected or surviving cells. Call rule: 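a knock-down is a candidate when at least two out of four statistical tests show it departing from its plate mean; one test alone signals a weak candidate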. Meaning of the calls: active = candidate regulator (raises or lowers reporter); inactive = not a candidate.
In all, the deposit lists about 22,000 reagents; shown is an unselected part of those with a known target gene and a result. In the full data, 233 (1.1%) got an active call. 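Light values are raw, unnormalised plate reads; the ratio scores behind the reporter calls were not deposited.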 Names joined by + are all predicted targets of the reagent. Reagent sequences are not shown. Not stated in the record: the amount of reagent, the time to read-out, the dose of the treatment.

| Target gene | DRSC id | reporter change call, replicate 1 | firefly reporter light, replicate 1 | firefly reporter light, replicate 2 | Renilla control light, replicate 1 | Renilla control light, replicate 2 | activity call |
| --- | --- | --- | --- | --- | --- | --- | --- |
| Papss (GeneID 40167) | DRSC11246 | – | 2280 | – | 1160 | – | inactive |
| dgt4 (GeneID 31361) | DRSC18659 | – | 13810 | – | 5821 | – | inactive |
| CG42634 + CG42635 | DRSC02450 | – | 3077 | 9366 | 1003 | 4067 | inactive |
| mol (GeneID 34872) | DRSC01431 | – | 4341 | 16361 | 1590 | 7496 | inactive |
| mol (GeneID 34872) | DRSC01912 | – | 12850 | – | 1348 | – | inactive |
| mol (GeneID 34872) | DRSC02479 | – | 3571 | 10512 | 1576 | 4953 | inactive |
| CG9021 (GeneID 33818) | DRSC03128 | – | 8229 | – | 3659 | – | inactive |
| CG13404 (GeneID 32382) | DRSC19536 | – | 17319 | – | 8880 | – | inactive |
| CG32816 (GeneID 318225) | DRSC17337 | – | 3699 | – | 1453 | – | inactive |
| RPA1 (GeneID 40972) | DRSC16830 | – | 4434 | – | 1600 | – | inactive |
| Nup214 (GeneID 46091) | DRSC04421 | – | 10416 | – | 2680 | – | inactive |
| pk (GeneID 45343) | DRSC06178 | – | 2104 | 4889 | 499 | 1872 | inactive |
| pk (GeneID 45343) | DRSC07664 | – | 2893 | 8179 | 930 | 4240 | inactive |
| pk (GeneID 45343) | DRSC22156 | – | 7.60e5 | 7.68e5 | 2.98e5 | 2.74e5 | inactive |
| CG6650 (GeneID 39555) | DRSC10685 | – | 4227 | – | 1730 | – | inactive |
| CG13066 (GeneID 50270) | DRSC09949 | – | 7808 | – | 3443 | – | inactive |
| Esp (GeneID 42962) | DRSC16664 | – | 18832 | – | 16137 | – | inactive |
| rumi (GeneID 326122) | DRSC15177 | – | 3222 | 7045 | 900 | 1321 | inactive |
| mfr (GeneID 39016) | DRSC10543 | – | 1280 | 5216 | 1015 | 2845 | inactive |
| verm (GeneID 40149) | DRSC11038 | – | 5417 | – | 2589 | – | inactive |
| CG3927 (GeneID 37576) | DRSC04433 | – | 2786 | 9906 | 664 | 2396 | inactive |
| CG3927 (GeneID 37576) | DRSC22813 | – | 5.13e5 | 5.32e5 | 2.33e5 | 2.74e5 | inactive |
| Hrb87F (GeneID 48535) | DRSC16708 | – | 5875 | – | 2373 | – | inactive |
| CG11523 (GeneID 40458) | DRSC11669 | – | 5097 | – | 2425 | – | inactive |
| Magi (GeneID 37403) | DRSC04247 | – | 14421 | – | 3034 | – | inactive |
| Magi (GeneID 37403) | DRSC04451 | – | 2025 | 8160 | 524 | 3722 | inactive |
| CG32551 (GeneID 318085) | DRSC19259 | – | 4634 | – | 1716 | – | inactive |
| Gr66a (GeneID 38935) | DRSC10783 | – | 1368 | 5836 | 1036 | 3223 | inactive |
| foxo (GeneID 41709) | DRSC13017 | – | 2320 | – | 279 | – | inactive |
| foxo (GeneID 41709) | DRSC15463 | – | 6613 | – | 2483 | – | inactive |
| l(2)37Cb (GeneID 35192) | DRSC02095 | – | 6859 | – | 2473 | – | inactive |
| Hsp67Ba (GeneID 39076) | DRSC11191 | – | 6278 | – | 1680 | – | inactive |
| Npc2g (GeneID 43648) | DRSC14296 | – | 9040 | – | 3270 | – | inactive |
| Glg1 (GeneID 40382) | DRSC11815 | – | 7421 | – | 2176 | – | inactive |
| Glg1 (GeneID 40382) | DRSC11816 | – | 13159 | – | 5152 | – | inactive |
| Glg1 (GeneID 40382) | DRSC11817 | – | 21320 | – | 6294 | – | inactive |
| Cka (GeneID 34096) | DRSC03476 | – | 3943 | 8955 | 1600 | 4752 | inactive |
| Cka (GeneID 34096) | DRSC22858 | – | 6.51e5 | 6.37e5 | 1.60e5 | 1.88e5 | inactive |
| CG4271 (GeneID 33410) | DRSC00649 | – | 3049 | 8778 | 1593 | 3549 | inactive |
| CG31272 (GeneID 326130) | DRSC16058 | – | 13905 | – | 2964 | – | inactive |
| Tsp66E (GeneID 39017) | DRSC09683 | – | 1282 | 8579 | 908 | 2531 | inactive |
| CG3222 (GeneID 39114) | DRSC10355 | – | 5324 | – | 2680 | – | inactive |
| CG6959 (GeneID 41434) | DRSC16151 | – | 14364 | – | 3620 | – | inactive |
| CG31926 (GeneID 326174) | DRSC00295 | – | 2345 | 7011 | 1223 | 2656 | inactive |
| fz (GeneID 45307) | DRSC11348 | Wg reporter activity lowered | 1709 | – | 2321 | – | active |
| BORCS5 (GeneID 32145) | DRSC19427 | – | 3172 | 7765 | 1266 | 2779 | inactive |

7 consecutive reagents already listed, for reference:
| Target gene | DRSC id | reporter change call, replicate 1 | firefly reporter light, replicate 1 | firefly reporter light, replicate 2 | Renilla control light, replicate 1 | Renilla control light, replicate 2 | activity call |
| --- | --- | --- | --- | --- | --- | --- | --- |
| CG11523 (GeneID 40458) | DRSC11669 | – | 5097 | – | 2425 | – | inactive |
| Magi (GeneID 37403) | DRSC04247 | – | 14421 | – | 3034 | – | inactive |
| Magi (GeneID 37403) | DRSC04451 | – | 2025 | 8160 | 524 | 3722 | inactive |
| CG32551 (GeneID 318085) | DRSC19259 | – | 4634 | – | 1716 | – | inactive |
| Gr66a (GeneID 38935) | DRSC10783 | – | 1368 | 5836 | 1036 | 3223 | inactive |
| foxo (GeneID 41709) | DRSC13017 | – | 2320 | – | 279 | – | inactive |
| foxo (GeneID 41709) | DRSC15463 | – | 6613 | – | 2483 | – | inactive |

Continued.
| Target gene | DRSC id | reporter change call, replicate 1 | firefly reporter light, replicate 1 | firefly reporter light, replicate 2 | Renilla control light, replicate 1 | Renilla control light, replicate 2 | activity call |
| --- | --- | --- | --- | --- | --- | --- | --- |
| Rpp20 + CG33932 | DRSC19467 | – | 16433 | – | 10390 | – | inactive |
| CG17032 (GeneID 39736) | DRSC10241 | – | 10730 | – | 4308 | – | inactive |
| tna (GeneID 39217) | DRSC09053 | – | 2729 | – | 1565 | – | inactive |
| tna (GeneID 39217) | DRSC10937 | Wg reporter activity raised | 17401 | – | 2523 | – | active |
| CG32374 (GeneID 38848) | DRSC10986 | – | 2453 | 10813 | 1596 | 4089 | inactive |
| Toll-9 (GeneID 40245) | DRSC11776 | – | 13458 | – | 4556 | – | inactive |
| CG17754 (GeneID 31873) | DRSC18131 | – | 1296 | 5028 | 694 | 1968 | inactive |
| Dic1 (GeneID 41640) | DRSC14125 | – | 5488 | – | 2640 | – | inactive |
| CG14717 (GeneID 41412) | DRSC14940 | – | 13354 | – | 3341 | – | inactive |
| lncRNA:CR31044 (GeneID 10178917) | DRSC22451 | – | 6.86e5 | 7.09e5 | 3.08e5 | 2.82e5 | inactive |
| Or19a (GeneID 59214) | DRSC20684 | – | 16759 | – | 13436 | – | inactive |
| CG32815 (GeneID 318224) | DRSC18177 | – | 17859 | – | 19288 | – | inactive |
| CG32815 (GeneID 318224) | DRSC18179 | – | 20369 | – | 15820 | – | inactive |
| SCCRO3 (GeneID 36426) | DRSC06359 | Wg reporter activity lowered | 4251 | – | 1040 | – | inactive |
| Akap200 (GeneID 34170) | DRSC01864 | – | 10042 | – | 3917 | – | inactive |
| CG33233 (GeneID 2769005) | DRSC08239 | – | 4889 | – | 2597 | – | inactive |
| CG42249 (GeneID 32043) | DRSC19383 | – | 22296 | – | 9819 | – | inactive |
| CG42249 (GeneID 32043) | DRSC19826 | – | 12624 | – | 8619 | – | inactive |
| CG8613 (GeneID 36593) | DRSC07222 | – | 12404 | – | 3547 | – | inactive |
| CG43446 (GeneID 12798498) | DRSC13458 | – | 2477 | – | 1373 | – | inactive |
| RpL28 + snoRNA:Or-CD12 | DRSC08293 | – | 5992 | – | 1835 | – | inactive |
| hll (GeneID 34822) | DRSC01944 | – | 4032 | – | 979 | – | inactive |
| ND-51L2 (GeneID 36695) | DRSC07080 | – | 6810 | – | 2004 | – | inactive |
| DCP1 (GeneID 37790) | DRSC04091 | – | 11478 | – | 3650 | – | inactive |
| shd (GeneID 39592) | DRSC11129 | – | 4084 | – | 2107 | – | inactive |
| CG34263 (GeneID 5740488) | DRSC07866 | – | 3574 | – | 1633 | – | inactive |
| nclb (GeneID 36150) | DRSC07009 | – | 1863 | 7760 | 676 | 2564 | inactive |
